# Source: patent publication US12296365B2, “Peroxyformic acid compositions for membrane filtration cleaning” (ECOLAB USA INC., priority 2015, dated 2025)
# Assay: RO membrane compatibility soak, clean water flux and salt rejection
# Conditions: Koch HRX, 77 F
# Method: In particular, the effects of PFA on reverse osmosis members which contain a polyamide structure in comparison with known control chemicals was tested. Three different membranes were tested including Koch HRX, Hydranautics CPAS and Hydranautics ESPA2+. Membranes were soaked in duplicate, in chemistries according to Table 4.
# Membranes were then conditioned in Ultrasil 110 at a pH of 11 for 90 minutes at 50° C., followed by a rinse in DI water.
# Each of the chemistries, with the exception of PFA was refreshed daily. PFA was refreshed hourly. After the simulated exposure the membranes are rinsed with DI water and placed on the Flat Sheet Membrane skid (Model M20). The membranes were rinsed with DI water for 24 hours at standard UF pressure and temperature. Once 24 hours was completed the membranes were subjected to alkaline conditioning step until solution pH is 11. 15.14 grams of NaCl was added to the recirculating water (2000 ppm NaCl) and the system was allowed to continue circulating. The conductivity of each permeate tube and feed was then measured and recorded and shown as percent rejection. The percent rejection was determined by (conductivity of the feed−conductivity of the permeate)/(conductivity of the feed).
Structure (SMILES),"Salt Rejection (%) PFA 1 YR (300 ppm, simulated 1 Year, soak 78 hr) [%]","Salt Rejection (%) PFA 3 YR (300 ppm, simulated 3 Years, soak 234 hr) [%]","Salt Rejection (%) Peracetic acid (57 ppm, simulated 3 Years, soak 234 hr) [%]"
"O=COO [PFA, peroxyformic acid]",91.26,87.50,–
CC(=O)OO [Peracetic acid],–,–,93.88
